Measured values as given in the supplement of paper PMC6078165.
Values are relative to the signal before dosing, not to a vehicle control; the signal also falls without drug.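 Labels refer to human fibroblasts, largely primary: uterine (C12385, HUF), lung (H6013), bone (Hs27A), adrenal (HADF), skin (WS1), plus mammary HMF and breast cancer-associated Hs343T. Cancer lines are basal-like or mesenchymal-like triple-negative breast cancer. The paper counts as hits responses shifting over 3x the replicate standard deviation. The tissue of the other fibroblasts is not given here.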

System: MDAMB436
Experiment: relative JC-1 red fluorescence (viability) vs pre-drug, coculture with fibroblast (fraction); higher = more viable cancer cells
Method: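 JC-1 labelled TNBC cells cocultured 1:1 (1,500 cells each) with CellTrace Violet stained primary or stromal fibroblasts in 384-well plates in FluoroBrite medium, treated with one of 42 anticancer drugs at 0.1, 1, 10 or 100 uM. JC-1 red fluorescence (mitochondrial integrity in cancer cells only) was read by plate reader every 8 h for 72 h. Values are normalised to each well's pre-drug value. The stock of one drug was tenfold lower, so its dose labels may be too high.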

CN(C)CCOc1ccc(/C(=C(/CCCl)c2ccccc2)c2ccccc2)cc1 [Toremifene]
relative JC-1 red fluorescence
Conditions | 8 h | 16 h | 24 h | 32 h | 40 h | 48 h | 56 h | 64 h | 72 h
0.1 µM, coculture fibroblast: C12385 | 0.7677 | 0.6657 | 0.63 | 0.53 | 0.476 | 0.45 | 0.428 | 0.413 | 0.406
0.1 µM, coculture fibroblast: H6013 | 0.783 | 0.7273 | 0.703 | 0.6888 | 0.666 | 0.682 | 0.631 | 0.621 | 0.576
0.1 µM, coculture fibroblast: H6019 | 0.697 | 0.64453 | 0.602 | 0.523 | 0.478 | 0.451 | 0.423 | 0.394 | 0.369
0.1 µM, coculture fibroblast: H6076 | 0.733 | 0.6643 | 0.6459 | 0.601 | 0.593 | 0.57626 | 0.595 | 0.5815 | 0.5726
0.1 µM, coculture fibroblast: H6231 | 0.75 | 0.669 | 0.696 | 0.614 | 0.607 | 0.579 | 0.562 | 0.543 | 0.524
0.1 µM, coculture fibroblast: HADF | 0.822 | 0.719 | 0.696 | 0.664 | 0.644 | 0.665 | 0.607 | 0.599 | 0.564
0.1 µM, coculture fibroblast: HCFa | 0.755 | 0.707 | 0.669 | 0.627 | 0.599 | 0.603 | 0.541 | 0.522 | 0.468
0.1 µM, coculture fibroblast: HCPF | 0.7189 | 0.672 | 0.679 | 0.621 | 0.618 | 0.583 | 0.576 | 0.559 | 0.547
0.1 µM, coculture fibroblast: HHSteC | 0.7917 | 0.757 | 0.728 | 0.683 | 0.674 | 0.686 | 0.623 | 0.601 | 0.54
0.1 µM, coculture fibroblast: HMF | 0.707 | 0.66 | 0.6287 | 0.5836 | 0.5734 | 0.54 | 0.538 | 0.513 | 0.5096
0.1 µM, coculture fibroblast: HPFa | 0.885 | 0.786 | 0.749 | 0.7 | 0.677 | 0.6784 | 0.599 | 0.5709 | 0.4906
0.1 µM, coculture fibroblast: HUF | 0.836 | 0.759 | 0.749 | 0.676 | 0.631 | 0.601 | 0.577 | 0.563 | 0.558
0.1 µM, coculture fibroblast: Hs5 | 0.765 | 0.72 | 0.714 | 0.663 | 0.659 | 0.618 | 0.63 | 0.605 | 0.607
0.1 µM, coculture fibroblast: Hs27A | 0.82 | 0.735 | 0.685 | 0.653 | 0.629 | 0.674 | 0.581 | 0.559 | 0.489
0.1 µM, coculture fibroblast: Hs343T | 0.79 | 0.731 | 0.68 | 0.627 | 0.578 | 0.532 | 0.508 | 0.49 | 0.4726
0.1 µM, coculture fibroblast: WS1 | 0.7736 | 0.668 | 0.6225 | 0.53 | 0.472 | 0.437 | 0.401 | 0.368 | 0.355
1 µM, coculture fibroblast: C12385 | 0.852 | 0.783 | 0.679 | 0.631 | 0.578 | 0.548 | 0.523 | 0.5 | 0.496
1 µM, coculture fibroblast: H6013 | 0.8913 | 0.799 | 0.792 | 0.784 | 0.758 | 0.756 | 0.727 | 0.704 | 0.661
1 µM, coculture fibroblast: H6019 | 0.8012 | 0.735 | 0.708 | 0.654 | 0.6131 | 0.581 | 0.5503 | 0.513 | 0.48512
1 µM, coculture fibroblast: H6076 | 0.851 | 0.783 | 0.775 | 0.733 | 0.715 | 0.684 | 0.678 | 0.6705 | 0.6528
1 µM, coculture fibroblast: H6231 | 0.81 | 0.73 | 0.716 | 0.657 | 0.624 | 0.592 | 0.575 | 0.528 | 0.502
1 µM, coculture fibroblast: HADF | 0.8642 | 0.788 | 0.762 | 0.714 | 0.685 | 0.682 | 0.626 | 0.607 | 0.565
1 µM, coculture fibroblast: HCFa | 0.8533 | 0.781 | 0.7591 | 0.721 | 0.68 | 0.678 | 0.611 | 0.589 | 0.521
1 µM, coculture fibroblast: HCPF | 0.868 | 0.794 | 0.7717 | 0.723 | 0.691 | 0.647 | 0.607 | 0.578 | 0.55
1 µM, coculture fibroblast: HHSteC | 0.884 | 0.823 | 0.7613 | 0.7158 | 0.6804 | 0.66623 | 0.6054 | 0.57624 | 0.5165
1 µM, coculture fibroblast: HMF | 0.83924 | 0.757 | 0.717 | 0.686 | 0.655 | 0.612 | 0.602 | 0.585 | 0.563
1 µM, coculture fibroblast: HPFa | 0.9137 | 0.871 | 0.8187 | 0.767 | 0.744 | 0.73 | 0.646 | 0.599 | 0.518
1 µM, coculture fibroblast: HUF | 0.8749 | 0.779 | 0.745 | 0.665 | 0.608 | 0.581 | 0.552 | 0.537 | 0.523
1 µM, coculture fibroblast: Hs5 | 0.848 | 0.7765 | 0.752 | 0.699 | 0.678 | 0.64 | 0.633 | 0.598 | 0.58
1 µM, coculture fibroblast: Hs27A | 0.8737 | 0.795 | 0.769 | 0.7408 | 0.7123 | 0.726 | 0.64523 | 0.6183 | 0.541
1 µM, coculture fibroblast: Hs343T | 0.8406 | 0.777 | 0.75079 | 0.712 | 0.6889 | 0.6618 | 0.6406 | 0.6225 | 0.607
1 µM, coculture fibroblast: WS1 | 0.8432 | 0.749 | 0.695 | 0.631 | 0.581 | 0.546 | 0.525 | 0.499 | 0.485
10 µM, coculture fibroblast: C12385 | 0.8389 | 0.802 | 0.788 | 0.73 | 0.696 | 0.668 | 0.638 | 0.609 | 0.587
10 µM, coculture fibroblast: H6013 | 0.879 | 0.86 | 0.844 | 0.857 | 0.837 | 0.846 | 0.806 | 0.787 | 0.752
10 µM, coculture fibroblast: H6019 | 0.806 | 0.873 | 0.964 | 0.862 | 0.831 | 0.783 | 0.9888 | 0.9647 | 0.9356
10 µM, coculture fibroblast: H6076 | 0.805 | 0.902 | 0.829 | 0.926 | 0.841 | 0.921 | 0.884 | 0.877 | 0.845
10 µM, coculture fibroblast: H6231 | 0.881 | 0.798 | 0.775 | 0.693 | 0.658 | 0.635 | 0.585 | 0.54 | 0.521
10 µM, coculture fibroblast: HADF | 0.833 | 0.816 | 0.824 | 0.842 | 0.847 | 0.861 | 0.821 | 0.799 | 0.742
10 µM, coculture fibroblast: HCFa | 0.877 | 0.803 | 0.831 | 0.896 | 0.9247 | 0.871 | 0.816 | 0.773 | 0.849
10 µM, coculture fibroblast: HCPF | 0.845 | 0.781 | 0.8223 | 0.772 | 0.734 | 0.694 | 0.652 | 0.604 | 0.581
10 µM, coculture fibroblast: HHSteC | 0.855 | 0.74 | 0.828 | 0.752 | 0.838 | 0.815 | 0.752 | 0.712 | 0.652
10 µM, coculture fibroblast: HMF | 0.787 | 0.78 | 0.808 | 0.778 | 0.762 | 0.725 | 0.684 | 0.638 | 0.605
10 µM, coculture fibroblast: HPFa | 0.8509 | 0.768 | 0.745 | 0.712 | 0.689 | 0.668 | 0.617 | 0.595 | 0.544
10 µM, coculture fibroblast: HUF | 0.856 | 0.827 | 0.829 | 0.79 | 0.752 | 0.725 | 0.689 | 0.661 | 0.6422
10 µM, coculture fibroblast: Hs5 | 0.8097 | 0.7887 | 0.794 | 0.743 | 0.73 | 0.7 | 0.714 | 0.68 | 0.686
10 µM, coculture fibroblast: Hs27A | 0.874 | 0.845 | 0.873 | 0.773 | 0.776 | 0.861 | 0.7378 | 0.778 | 0.725
10 µM, coculture fibroblast: Hs343T | 0.855 | 0.869 | 0.873 | 0.842 | 0.811 | 0.753 | 0.707 | 0.681 | 0.663
10 µM, coculture fibroblast: WS1 | 0.822 | 0.84 | 0.936 | 0.891 | 0.871 | 0.889 | 0.856 | 0.853 | 0.848
100 µM, coculture fibroblast: C12385 | 0.635 | 0.513 | 0.48 | 0.4003 | 0.3393 | 0.3 | 0.266 | 0.233 | 0.2
100 µM, coculture fibroblast: H6013 | 0.71 | 0.6 | 0.586 | 0.555 | 0.511 | 0.507 | 0.427 | 0.385 | 0.317
100 µM, coculture fibroblast: H6019 | 0.686 | 0.57 | 0.57 | 0.506 | 0.47 | 0.436 | 0.398 | 0.354 | 0.32
100 µM, coculture fibroblast: H6076 | 0.595 | 0.482 | 0.442 | 0.364 | 0.305 | 0.233 | 0.187 | 0.139 | 0.0998
100 µM, coculture fibroblast: H6231 | 0.7 | 0.523 | 0.461 | 0.339 | 0.278 | 0.21905 | 0.1824 | 0.135 | 0.094
100 µM, coculture fibroblast: HADF | 0.731 | 0.585 | 0.542 | 0.492 | 0.437 | 0.439 | 0.345 | 0.308 | 0.233
100 µM, coculture fibroblast: HCFa | 0.82725 | 0.718 | 0.705 | 0.649 | 0.603 | 0.606 | 0.497 | 0.456 | 0.358
100 µM, coculture fibroblast: HCPF | 0.599 | 0.478 | 0.3914 | 0.305 | 0.255 | 0.192 | 0.134 | 0.0924 | 0.0509
100 µM, coculture fibroblast: HHSteC | 0.808 | 0.748 | 0.717 | 0.649 | 0.627 | 0.621 | 0.519 | 0.474 | 0.396
100 µM, coculture fibroblast: HMF | 0.596 | 0.449 | 0.384 | 0.309 | 0.262 | 0.2013 | 0.1529 | 0.0988 | 0.0625
100 µM, coculture fibroblast: HPFa | 0.923 | 0.81 | 0.769 | 0.708 | 0.677 | 0.672 | 0.568 | 0.519 | 0.441
100 µM, coculture fibroblast: HUF | 0.7 | 0.571 | 0.571 | 0.509 | 0.46 | 0.426 | 0.389 | 0.362 | 0.334
100 µM, coculture fibroblast: Hs5 | 0.675 | 0.558 | 0.534 | 0.439 | 0.375 | 0.279 | 0.241 | 0.178 | 0.132
100 µM, coculture fibroblast: Hs27A | 0.622 | 0.531 | 0.48 | 0.428 | 0.392 | 0.424 | 0.314 | 0.29 | 0.212
100 µM, coculture fibroblast: Hs343T | 0.615 | 0.496 | 0.477 | 0.377 | 0.333 | 0.235 | 0.184 | 0.1346 | 0.102
100 µM, coculture fibroblast: WS1 | 0.602 | 0.44 | 0.412 | 0.336 | 0.294 | 0.258 | 0.228 | 0.192 | 0.169
